Patent US20220089727A1
Residue numbers refer to the chain shown, from its start. No constants are given. Whether binding was seen depends on the method and setting. Some entries that bind do so weakly or less than the wild type.

The chains behind the UniProt entries cited, without tags or fusion partners. Where a name states a change or a piece, a line headed by the entry shows the natural chain unless it says otherwise. Residues count along the entry.
UniProt Q08722: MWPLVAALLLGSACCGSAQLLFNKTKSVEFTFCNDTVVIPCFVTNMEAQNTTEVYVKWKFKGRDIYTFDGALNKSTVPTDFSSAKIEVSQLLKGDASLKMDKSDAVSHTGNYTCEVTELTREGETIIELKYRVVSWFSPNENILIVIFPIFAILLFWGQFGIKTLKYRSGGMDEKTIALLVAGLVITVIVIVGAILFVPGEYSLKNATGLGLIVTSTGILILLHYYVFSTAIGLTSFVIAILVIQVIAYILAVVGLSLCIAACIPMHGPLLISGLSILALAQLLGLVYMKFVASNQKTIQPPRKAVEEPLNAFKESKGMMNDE
CD47 on the surface of Jurkat cells: residues 19-323 of Q08722
human CD47 (analyte in the Biacore assay): residues 19-139 of Q08722

Tests used:
[1] = target: monkey CD47ECD-linker peptide-7his (monkey); assay: ELISA of clone supernatant on monkey CD47-his
[2] = target: CD47 on the surface of Jurkat cells (human) (UniProt Q08722); assay: flow cytometry on Jurkat cells, hybridoma supernatant, goat anti-mouse IgG Fc FITC secondary antibody
[3] = target: human CD47-linker peptide-hIgG1Fc (human); assay: competition ELISA: human CD47-hFc coated, antibody titrated (3-fold from 20000 ng/mL, 7 points) and mixed with human SIRP-his, bound SIRP-his detected with anti-His-HRP
[4] = target: CD47 on the surface of Jurkat cells (human) (UniProt Q08722); assay: flow cytometry on Jurkat cells
[5] = target: human CD47ECD-linker peptide-7his (human) (UniProt Q08722); assay: ELISA of clone supernatant on human CD47-his
[6] = target: CD47 on the surface of Jurkat cells (human) (UniProt Q08722); assay: FACS of clone supernatant on Jurkat cells
[7] = target: human CD47 (analyte in the Biacore assay) (human) (UniProt Q08722); assay: SPR (Biacore T200), antibody captured by anti-mouse Fc, human CD47 as analyte

Measured: binding

B1: 059-1.20.1 (antibody, mouse IgG1, V domains shown)
VH: EVQLQQSGPELVKPGASVNMSCKASGYTFTNYFLHWVKQKPGQGLEWIGYINPYNDGTNYNENFKGKATLTSDKSSSTAYMELSSLTSEDSAVYYCAKGGWFSMDYWGQGTSVTVSS
VL: DVVMTQTPLSLPVSLGDQASISCRSSQSLVHSNGKTYLQWYLQKPGQSPKLLIYKVSNRFSGVPDRFSGSGSGTDFTLKISRVEAEDLGVYFCSQSTHVYTFGGGTKLEIK
binds: [1]

B2: 059-1.30.1 (antibody, mouse IgG1, V domains shown)
VH: EVQLQQSGPELVKPGASVRMSCKASGYTFTNYVMHWVKQKPGQGLEWIGYINPYNDGTKYSEKFKGKATLTSDKSSITAYMELSSLTSEDSAVYYCAKGGLFTFDYWGQGTTLTVSS
VL: DVVMTQTPLSLPVSLGDQASISCRSSQSLVHSKGNTYLHWYLQKPGQSPKLLIYRVSNRFSGVPDRFSGSGSGTDFTLKISRVEAEDLGVYFCSQSTHVPFTFGSGTKLEIK
not listed: [7]
binds: all other assays above

B3: 059-1.82.1 (antibody, mouse IgG3, V domains shown)
VH: B1 VH with N19K, F33V, L34M, N63K
VL: B1 VL
binds: [7] | [1]
